Experimental data published in the supplement of paper PMC10849652.
This is one part of the list.

The chains behind the UniProt entries cited, without tags or fusion partners. Where a name states a change or a piece, a line headed by the entry shows the natural chain unless it says otherwise.
UniProt O95985: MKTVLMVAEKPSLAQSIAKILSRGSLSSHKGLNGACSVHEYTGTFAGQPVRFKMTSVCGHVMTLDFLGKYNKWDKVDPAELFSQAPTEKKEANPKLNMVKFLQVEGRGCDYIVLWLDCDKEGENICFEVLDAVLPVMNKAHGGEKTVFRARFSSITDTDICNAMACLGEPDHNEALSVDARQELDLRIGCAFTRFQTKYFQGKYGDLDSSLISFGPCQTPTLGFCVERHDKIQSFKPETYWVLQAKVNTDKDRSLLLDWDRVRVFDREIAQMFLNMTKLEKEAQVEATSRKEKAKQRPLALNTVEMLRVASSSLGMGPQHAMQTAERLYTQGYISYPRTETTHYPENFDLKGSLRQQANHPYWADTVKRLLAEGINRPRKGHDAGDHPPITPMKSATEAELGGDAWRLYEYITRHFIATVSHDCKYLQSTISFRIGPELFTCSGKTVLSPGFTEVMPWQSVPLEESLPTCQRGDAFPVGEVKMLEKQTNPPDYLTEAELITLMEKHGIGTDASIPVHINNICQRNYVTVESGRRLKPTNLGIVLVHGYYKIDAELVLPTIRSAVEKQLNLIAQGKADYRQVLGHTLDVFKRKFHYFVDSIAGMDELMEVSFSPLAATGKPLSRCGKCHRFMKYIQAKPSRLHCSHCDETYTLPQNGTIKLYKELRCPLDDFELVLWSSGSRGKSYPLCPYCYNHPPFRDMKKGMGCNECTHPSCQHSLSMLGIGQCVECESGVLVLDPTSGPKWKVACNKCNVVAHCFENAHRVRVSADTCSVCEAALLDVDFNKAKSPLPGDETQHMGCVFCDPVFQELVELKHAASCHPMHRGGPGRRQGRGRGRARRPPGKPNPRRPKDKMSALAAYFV
UniProt Q9H497: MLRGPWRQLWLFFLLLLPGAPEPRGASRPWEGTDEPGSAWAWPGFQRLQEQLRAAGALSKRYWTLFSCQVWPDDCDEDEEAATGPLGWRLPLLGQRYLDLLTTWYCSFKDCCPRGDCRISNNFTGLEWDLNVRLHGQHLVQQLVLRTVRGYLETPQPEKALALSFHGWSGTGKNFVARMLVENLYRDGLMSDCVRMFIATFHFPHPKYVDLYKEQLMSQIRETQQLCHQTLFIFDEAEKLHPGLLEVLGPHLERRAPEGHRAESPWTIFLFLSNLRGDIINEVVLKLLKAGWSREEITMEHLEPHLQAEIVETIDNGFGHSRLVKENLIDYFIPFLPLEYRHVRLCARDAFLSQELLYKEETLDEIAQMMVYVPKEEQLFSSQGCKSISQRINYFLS
UniProt Q7Z392: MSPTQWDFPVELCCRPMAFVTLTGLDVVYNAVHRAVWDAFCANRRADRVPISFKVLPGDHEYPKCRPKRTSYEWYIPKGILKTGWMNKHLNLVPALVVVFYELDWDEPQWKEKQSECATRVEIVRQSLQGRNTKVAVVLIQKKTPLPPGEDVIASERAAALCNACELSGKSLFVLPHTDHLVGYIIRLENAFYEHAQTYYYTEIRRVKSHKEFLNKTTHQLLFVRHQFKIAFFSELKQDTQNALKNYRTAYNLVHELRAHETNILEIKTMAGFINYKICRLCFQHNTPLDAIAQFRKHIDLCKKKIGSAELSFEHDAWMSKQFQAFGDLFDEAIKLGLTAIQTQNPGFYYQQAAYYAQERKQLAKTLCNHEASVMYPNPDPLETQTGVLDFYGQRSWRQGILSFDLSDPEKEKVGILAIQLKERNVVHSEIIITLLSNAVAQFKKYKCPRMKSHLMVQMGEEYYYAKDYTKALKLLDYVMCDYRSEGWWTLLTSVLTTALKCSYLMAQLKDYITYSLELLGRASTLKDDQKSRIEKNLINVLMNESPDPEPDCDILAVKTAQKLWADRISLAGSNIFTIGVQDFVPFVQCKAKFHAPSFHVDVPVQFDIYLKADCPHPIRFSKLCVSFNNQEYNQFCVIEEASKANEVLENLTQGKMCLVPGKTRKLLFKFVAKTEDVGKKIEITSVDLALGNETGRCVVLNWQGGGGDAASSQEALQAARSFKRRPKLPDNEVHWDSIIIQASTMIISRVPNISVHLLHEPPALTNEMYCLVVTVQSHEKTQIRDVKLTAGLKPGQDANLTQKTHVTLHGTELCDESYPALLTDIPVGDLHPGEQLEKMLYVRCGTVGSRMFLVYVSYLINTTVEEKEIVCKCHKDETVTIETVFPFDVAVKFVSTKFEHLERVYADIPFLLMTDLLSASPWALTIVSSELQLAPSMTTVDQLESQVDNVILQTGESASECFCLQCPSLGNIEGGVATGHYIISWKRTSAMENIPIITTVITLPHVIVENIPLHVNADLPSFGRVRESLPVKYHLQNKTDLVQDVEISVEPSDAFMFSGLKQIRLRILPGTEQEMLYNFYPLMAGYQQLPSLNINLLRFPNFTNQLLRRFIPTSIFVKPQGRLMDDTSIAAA
UniProt Q15388, whole entry, looked up: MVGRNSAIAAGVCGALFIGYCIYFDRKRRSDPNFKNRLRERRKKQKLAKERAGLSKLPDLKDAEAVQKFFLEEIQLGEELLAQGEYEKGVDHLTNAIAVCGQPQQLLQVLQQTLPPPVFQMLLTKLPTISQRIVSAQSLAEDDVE
UniProt Q15629: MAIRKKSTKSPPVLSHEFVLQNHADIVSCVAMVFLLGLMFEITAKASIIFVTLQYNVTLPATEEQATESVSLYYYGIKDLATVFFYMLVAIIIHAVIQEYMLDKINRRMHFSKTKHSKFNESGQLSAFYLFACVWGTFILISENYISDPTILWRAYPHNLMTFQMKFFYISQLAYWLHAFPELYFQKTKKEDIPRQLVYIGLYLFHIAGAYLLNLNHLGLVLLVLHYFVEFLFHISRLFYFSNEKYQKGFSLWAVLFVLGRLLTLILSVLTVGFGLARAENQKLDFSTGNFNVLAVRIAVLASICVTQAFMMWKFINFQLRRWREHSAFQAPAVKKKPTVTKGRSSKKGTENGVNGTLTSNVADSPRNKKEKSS
UniProt P28908: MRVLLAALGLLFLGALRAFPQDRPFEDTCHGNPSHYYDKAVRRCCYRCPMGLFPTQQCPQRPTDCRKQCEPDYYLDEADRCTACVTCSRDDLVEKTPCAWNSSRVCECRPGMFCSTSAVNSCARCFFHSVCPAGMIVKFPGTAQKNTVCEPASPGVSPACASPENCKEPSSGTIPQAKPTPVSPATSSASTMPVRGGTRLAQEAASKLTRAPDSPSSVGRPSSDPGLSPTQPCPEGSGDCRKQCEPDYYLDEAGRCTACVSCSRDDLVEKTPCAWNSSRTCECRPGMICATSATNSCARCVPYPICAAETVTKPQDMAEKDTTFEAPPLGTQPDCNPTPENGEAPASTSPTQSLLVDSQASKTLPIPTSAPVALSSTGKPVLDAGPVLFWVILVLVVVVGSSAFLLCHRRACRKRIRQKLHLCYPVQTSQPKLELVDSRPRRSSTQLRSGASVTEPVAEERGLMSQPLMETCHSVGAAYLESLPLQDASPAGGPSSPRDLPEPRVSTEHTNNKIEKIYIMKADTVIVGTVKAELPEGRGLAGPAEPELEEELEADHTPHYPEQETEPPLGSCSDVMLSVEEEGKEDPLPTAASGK
UniProt Q15642: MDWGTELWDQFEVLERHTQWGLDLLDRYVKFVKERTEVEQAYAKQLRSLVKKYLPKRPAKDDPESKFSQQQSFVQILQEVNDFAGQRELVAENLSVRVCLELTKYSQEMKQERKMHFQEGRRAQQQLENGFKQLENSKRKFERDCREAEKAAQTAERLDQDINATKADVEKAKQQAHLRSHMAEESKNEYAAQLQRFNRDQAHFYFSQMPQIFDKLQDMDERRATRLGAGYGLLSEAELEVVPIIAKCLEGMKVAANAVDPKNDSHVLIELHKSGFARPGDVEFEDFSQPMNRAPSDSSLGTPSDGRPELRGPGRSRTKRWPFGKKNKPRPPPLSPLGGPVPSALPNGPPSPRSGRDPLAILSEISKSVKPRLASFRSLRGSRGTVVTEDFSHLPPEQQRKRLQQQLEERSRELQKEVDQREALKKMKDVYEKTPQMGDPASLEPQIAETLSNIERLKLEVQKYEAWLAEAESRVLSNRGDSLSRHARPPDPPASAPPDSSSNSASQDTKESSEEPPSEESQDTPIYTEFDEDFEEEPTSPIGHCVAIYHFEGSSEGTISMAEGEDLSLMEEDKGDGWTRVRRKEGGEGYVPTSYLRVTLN
UniProt O60784, whole entry, looked up: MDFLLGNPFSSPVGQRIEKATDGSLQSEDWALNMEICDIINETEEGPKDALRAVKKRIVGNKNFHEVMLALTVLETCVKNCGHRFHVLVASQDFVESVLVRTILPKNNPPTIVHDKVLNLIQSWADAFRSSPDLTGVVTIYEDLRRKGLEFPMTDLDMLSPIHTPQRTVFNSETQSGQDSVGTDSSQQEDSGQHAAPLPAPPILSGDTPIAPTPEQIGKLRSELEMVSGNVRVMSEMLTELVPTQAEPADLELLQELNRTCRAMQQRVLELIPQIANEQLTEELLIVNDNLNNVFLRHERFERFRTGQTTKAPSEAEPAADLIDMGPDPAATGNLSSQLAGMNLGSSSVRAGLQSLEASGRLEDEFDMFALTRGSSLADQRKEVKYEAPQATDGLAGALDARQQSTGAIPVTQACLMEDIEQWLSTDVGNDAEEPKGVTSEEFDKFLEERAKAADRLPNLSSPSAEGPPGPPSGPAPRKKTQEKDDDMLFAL
UniProt Q13625: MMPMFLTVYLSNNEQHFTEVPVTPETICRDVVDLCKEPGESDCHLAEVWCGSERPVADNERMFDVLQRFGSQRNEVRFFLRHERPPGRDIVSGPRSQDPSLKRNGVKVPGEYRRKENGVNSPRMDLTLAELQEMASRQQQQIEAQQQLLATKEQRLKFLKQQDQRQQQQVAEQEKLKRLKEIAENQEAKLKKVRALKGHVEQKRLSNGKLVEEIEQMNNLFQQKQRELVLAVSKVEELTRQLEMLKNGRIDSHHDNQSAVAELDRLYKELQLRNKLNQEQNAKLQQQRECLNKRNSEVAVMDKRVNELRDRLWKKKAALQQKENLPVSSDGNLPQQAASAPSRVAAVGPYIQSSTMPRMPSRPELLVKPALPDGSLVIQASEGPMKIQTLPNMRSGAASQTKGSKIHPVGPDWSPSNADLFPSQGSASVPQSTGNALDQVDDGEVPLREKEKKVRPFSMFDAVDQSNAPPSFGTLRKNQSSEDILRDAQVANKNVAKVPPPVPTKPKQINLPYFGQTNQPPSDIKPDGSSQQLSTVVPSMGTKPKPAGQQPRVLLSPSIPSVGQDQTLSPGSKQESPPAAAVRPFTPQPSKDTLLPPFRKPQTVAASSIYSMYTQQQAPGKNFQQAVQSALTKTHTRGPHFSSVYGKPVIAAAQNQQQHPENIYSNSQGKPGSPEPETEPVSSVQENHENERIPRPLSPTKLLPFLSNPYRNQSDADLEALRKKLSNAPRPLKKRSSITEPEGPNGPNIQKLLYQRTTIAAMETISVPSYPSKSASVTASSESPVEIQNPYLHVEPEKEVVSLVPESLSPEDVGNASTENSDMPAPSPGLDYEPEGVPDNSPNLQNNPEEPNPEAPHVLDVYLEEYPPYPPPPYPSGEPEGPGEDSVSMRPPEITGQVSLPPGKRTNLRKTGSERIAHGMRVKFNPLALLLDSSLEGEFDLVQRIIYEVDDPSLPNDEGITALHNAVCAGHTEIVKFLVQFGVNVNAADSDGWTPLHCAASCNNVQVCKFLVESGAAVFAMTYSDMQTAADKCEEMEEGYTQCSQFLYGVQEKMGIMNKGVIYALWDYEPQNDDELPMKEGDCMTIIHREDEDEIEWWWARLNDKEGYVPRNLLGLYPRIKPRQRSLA
UniProt P62995: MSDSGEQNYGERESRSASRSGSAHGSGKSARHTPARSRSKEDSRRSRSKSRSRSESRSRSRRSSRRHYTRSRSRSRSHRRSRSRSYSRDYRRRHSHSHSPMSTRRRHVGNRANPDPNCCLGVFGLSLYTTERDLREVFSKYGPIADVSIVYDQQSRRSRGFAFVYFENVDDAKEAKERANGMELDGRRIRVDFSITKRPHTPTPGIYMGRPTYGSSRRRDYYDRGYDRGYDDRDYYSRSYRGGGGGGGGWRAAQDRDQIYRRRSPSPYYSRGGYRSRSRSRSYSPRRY
UniProt O43399: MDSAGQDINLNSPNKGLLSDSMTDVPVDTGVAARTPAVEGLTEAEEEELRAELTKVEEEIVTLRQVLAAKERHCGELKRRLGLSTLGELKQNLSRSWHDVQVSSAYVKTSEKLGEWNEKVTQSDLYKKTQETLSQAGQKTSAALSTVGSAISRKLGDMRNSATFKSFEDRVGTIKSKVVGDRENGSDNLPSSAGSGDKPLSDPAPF
UniProt Q53FA7: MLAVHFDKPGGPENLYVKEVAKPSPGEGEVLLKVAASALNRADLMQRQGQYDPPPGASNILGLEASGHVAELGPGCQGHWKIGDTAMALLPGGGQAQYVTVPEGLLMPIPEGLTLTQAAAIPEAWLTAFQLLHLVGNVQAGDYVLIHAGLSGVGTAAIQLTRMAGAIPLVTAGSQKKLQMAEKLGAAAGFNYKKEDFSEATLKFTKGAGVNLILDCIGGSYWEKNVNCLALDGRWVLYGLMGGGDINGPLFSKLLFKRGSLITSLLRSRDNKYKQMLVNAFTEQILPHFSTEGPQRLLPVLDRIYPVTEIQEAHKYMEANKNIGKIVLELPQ

Legend:
Test in all cases: log2 fold change, soluble protein after heating vs DMSO (PISA); higher = thermal stabilisation; K562 cells, 10 uM, 30 min; active = over 0.2 and 3.5 SD of the protein, either way, in both replicates (recomputed)
saracatinib = compound: CN1CCN(CCOc2cc(OC3CCOCC3)c3c(Nc4c(Cl)ccc5c4OCO5)ncnc3c2)CC1 [saracatinib]
Outline: (§1)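 Quantification of soluble protein used TMTpro 16plex LC-MS/MS, with channel sums equalised. Samples were the supernatant after 21,000xg for 90 min of pooled aliquots from K562 cells (2×10^6 cells/mL) treated with 10 μM compound for 30 min, heated for 3 min over 48°C-58°C, and extracted in PBS with 0.5% NP-40 at 4°C. Values, from duplicates, describe thermal stability against control samples on a log2 fold-change scale.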

sotrastaurin = compound: CN1CCN(c2nc(C3=C(c4c[nH]c5ccccc45)C(=O)NC3=O)c3ccccc3n2)CC1 [sotrastaurin]
Outline: as §1

alvocidib = compound: CN1CC[C@H](c2c(O)cc(O)c3c(=O)cc(-c4ccccc4Cl)oc23)[C@H](O)C1 [alvocidib]
Outline: as §1

Tubastatin A = compound: CN1CCc2c(c3ccccc3n2Cc2ccc(C(=O)NO)cc2)C1 [Tubastatin A]
Outline: as §1

[1] = compound: CNC(=O)C1=CC=CC=C1NC2=NC(=NC=C2Cl)NC3=C(C=C(C=C3)N4CCOCC4)OC
Outline: as §1

defactinib = compound: CNC(=O)c1ccc(Nc2ncc(C(F)(F)F)c(NCc3nccnc3N(C)S(C)(=O)=O)n2)cc1 [defactinib]
Outline: as §1

rucaparib = compound: CNCc1ccc(-c2[nH]c3cc(F)cc4c3c2CCNC4=O)cc1 [rucaparib]
Outline: as §1

[2] = compound: CNc1nc(-c2ccc3c(N)n[nH]c3c2)cc(N2C[C@@H](C(=O)NC3CCCCC3)CC[C@H]2C)n1
Outline: as §1

encorafenib = compound: COC(=O)N[C@@H](C)CNc1nccc(-c2cn(C(C)C)nc2-c2cc(Cl)cc(NS(C)(=O)=O)c2F)n1 [encorafenib]
Outline: as §1

[3] = compound: COC(=O)[C@H](CCSC)NC(=O)C1=C(C=C(C=C1)NC[C@H](CS)N)C2=CC=CC=C2
Outline: as §1

[4] = compound: COC1=CC=C(C=C1)CN2C=CC3=C2C=C(C=C3)C(=O)NO
Outline: as §1

filanesib = compound: CON(C)C(=O)N1N=C(c2cc(F)ccc2F)S[C@@]1(CCCN)c1ccccc1 [filanesib]
Outline: as §1

zotarolimus = compound: CO[C@H]1C[C@@H]2CC[C@@H](C)[C@@](O)(O2)C(=O)C(=O)N2CCCC[C@H]2C(=O)O[C@H]([C@H](C)C[C@@H]2CC[C@H](n3cnnn3)[C@H](OC)C2)CC(=O)[C@H](C)/C=C(\C)[C@@H](O)[C@@H](OC)C(=O)[C@H](C)C[C@H](C)/C=C/C=C/C=C/1C [zotarolimus]
Outline: as §1

idasanutlin = compound: COc1cc(C(=O)O)ccc1NC(=O)[C@@H]1N[C@@H](CC(C)(C)C)[C@](C#N)(c2ccc(Cl)cc2F)[C@H]1c1cccc(Cl)c1F [idasanutlin]
Outline: as §1

alisertib = compound: COc1cc(Nc2ncc3c(n2)-c2ccc(Cl)cc2C(c2c(F)cccc2OC)=NC3)ccc1C(=O)O [alisertib]
Outline: as §1

[5] = compound: COc1cc2nc(-c3cc(F)ccc3O)nc(N[C@@H]3CNC[C@H]3C(C)(C)O)c2cc1OC
Outline: as §1

gefitinib = compound: COc1cc2ncnc(Nc3ccc(F)c(Cl)c3)c2cc1OCCCN1CCOCC1 [gefitinib]
Outline: as §1

[6] = compound: COc1cccc2cc(-c3nc([C@H]4CC[C@H](C(=O)O)CC4)n4ncnc(N)c34)[nH]c12
Outline: as §1

lapatinib = compound: CS(=O)(=O)CCNCc1ccc(-c2ccc3ncnc(Nc4ccc(OCc5cccc(F)c5)c(Cl)c4)c3c2)o1 [lapatinib]
Outline: as §1

pictilisib = compound: CS(=O)(=O)N1CCN(Cc2cc3nc(-c4cccc5[nH]ncc45)nc(N4CCOCC4)c3s2)CC1 [pictilisib]
Outline: as §1

Measured: log2 fold change

TOP3B (UniProt O95985)
inactive: saracatinib -0.039 | sotrastaurin -0.061 | alvocidib 0.08 | Tubastatin A 0.025 | [1] -0.016 | defactinib 0.124 | rucaparib 0.133 | [2] 0.12 | encorafenib 0.034 | [3] -0.06 | [4] -0.009 | filanesib 0.173 | zotarolimus 0.051 | idasanutlin 0.065 | alisertib 0.13 | [5] -0.008 | gefitinib -0.002 | [6] -0.097 | lapatinib 0.039 | pictilisib -0.105

TOR3A (UniProt Q9H497)
inactive: saracatinib -0.003 | sotrastaurin -0.007 | alvocidib -0.009 | Tubastatin A 0.009 | [1] -0.103 | defactinib -0.007 | rucaparib 0.048 | [2] 0.005 | encorafenib -0.022 | [3] -0.013 | [4] -0.008 | filanesib 0.016 | zotarolimus -0.017 | idasanutlin 0.024 | alisertib -0.066 | [5] -0.093 | gefitinib -0.03 | [6] 0.032 | lapatinib -0.027 | pictilisib -0.042

TRAPPC11 (UniProt Q7Z392)
inactive: saracatinib -0.043 | sotrastaurin -0.041 | Tubastatin A 0 | [1] -0.028 | defactinib -0.075 | rucaparib 0.051 | [2] -0.027 | encorafenib 0.035 | [3] -0.031 | [4] 0.015 | filanesib -0.018 | zotarolimus 0.024 | idasanutlin -0.039 | alisertib -0.052 | [5] -0.03 | gefitinib -0.012 | [6] -0.019 | lapatinib -0.014 | pictilisib 0.042

TOMM20 (UniProt Q15388)
inactive: saracatinib 0.012 | sotrastaurin -0.005 | Tubastatin A -0.031 | [1] -0.028 | defactinib -0.011 | rucaparib -0.009 | [2] -0.034 | encorafenib -0.131 | [3] 0.033 | [4] -0.011 | filanesib -0.213 | zotarolimus 0.005 | idasanutlin -0.022 | alisertib -0.029 | [5] -0.25 | gefitinib 0.005 | [6] -0.001 | lapatinib 0.045 | pictilisib 0.007

TRAM1 (UniProt Q15629)
inactive: saracatinib -0.007 | sotrastaurin -0.025 | Tubastatin A -0.052 | [1] -0.208 | defactinib -0.029 | rucaparib -0.132 | [2] 0 | encorafenib 0.179 | [3] -0.052 | [4] -0.188 | filanesib -0.218 | zotarolimus -0.103 | idasanutlin -0.119 | alisertib -0.067 | [5] 0.24 | gefitinib -0.066 | [6] 0.005 | lapatinib -0.092 | pictilisib -0.163

TRIM44 (UniProt Q96DX7)
inactive: saracatinib 0.035 | sotrastaurin -0.076 | Tubastatin A 0.116 | [1] -0.01 | defactinib -0.053 | rucaparib -0.092 | [2] -0.026 | encorafenib 0.032 | [3] 0.025 | [4] -0.074 | filanesib 0.022 | zotarolimus 0.005 | idasanutlin -0.025 | alisertib 0.008 | [5] -0.047 | gefitinib -0.027 | [6] -0.033 | lapatinib 0.025 | pictilisib 0.039

TRAPPC8 (UniProt Q9Y2L5)
inactive: saracatinib -0.017 | sotrastaurin -0.044 | Tubastatin A -0.004 | [1] 0.014 | defactinib -0.104 | rucaparib 0.074 | [2] 0.008 | encorafenib 0.032 | [3] -0.032 | [4] 0.032 | filanesib -0.017 | zotarolimus 0.03 | idasanutlin -0.059 | alisertib 0.003 | [5] 0.013 | gefitinib 0.009 | [6] -0.021 | lapatinib 0.021 | pictilisib -0.001

TNFRSF8 (UniProt P28908)
inactive: saracatinib 0.037 | sotrastaurin 0.092 | Tubastatin A 0.031 | [1] -0.013 | defactinib -0.034 | rucaparib 0.012 | [2] 0.04 | encorafenib -0.046 | [3] -0.02 | [4] 0.019 | filanesib 0.11 | zotarolimus -0.019 | idasanutlin 0.04 | alisertib -0.011 | [5] 0.074 | gefitinib 0.067 | [6] 0 | lapatinib 0.003 | pictilisib 0.047

TRIP10 (UniProt Q15642)
inactive: saracatinib 0.036 | sotrastaurin -0.014 | Tubastatin A 0 | [1] 0.027 | defactinib -0.029 | rucaparib 0.006 | [2] 0.046 | encorafenib 0.038 | [3] -0.005 | [4] 0.054 | filanesib 0.01 | zotarolimus -0.007 | idasanutlin -0.061 | alisertib -0.026 | [5] 0.083 | gefitinib -0.014 | [6] -0.04 | lapatinib 0.021 | pictilisib 0.033

TOM1 isoform 2 (UniProt O60784)
inactive: saracatinib 0.033 | sotrastaurin -0.132 | Tubastatin A 0.132 | [1] -0.025 | defactinib -0.087 | rucaparib -0.024 | [2] -0.043 | encorafenib 0.009 | [3] 0.089 | [4] -0.118 | filanesib -0.031 | zotarolimus -0.001 | idasanutlin 0.056 | alisertib -0.002 | [5] -0.039 | gefitinib -0.031 | [6] 0 | lapatinib 0.014 | pictilisib -0.154

TP53BP2 isoform 3 (UniProt Q13625)
inactive: saracatinib -0.031 | sotrastaurin -0.055 | alvocidib -0.071 | Tubastatin A 0.055 | [1] 0.017 | defactinib -0.115 | [2] -0.019 | [3] -0.028 | [4] 0.082 | filanesib 0.108 | zotarolimus -0.036 | idasanutlin -0.015 | [5] -0.03 | gefitinib -0.06 | lapatinib 0.036 | pictilisib 0.162

2 entries drawn at random from the list so far:
TOR3A (UniProt Q9H497)
inactive: saracatinib -0.003 | sotrastaurin -0.007 | alvocidib -0.009 | Tubastatin A 0.009 | [1] -0.103 | defactinib -0.007 | rucaparib 0.048 | [2] 0.005 | encorafenib -0.022 | [3] -0.013 | [4] -0.008 | filanesib 0.016 | zotarolimus -0.017 | idasanutlin 0.024 | alisertib -0.066 | [5] -0.093 | gefitinib -0.03 | [6] 0.032 | lapatinib -0.027 | pictilisib -0.042

TRIP10 (UniProt Q15642)
inactive: saracatinib 0.036 | sotrastaurin -0.014 | Tubastatin A 0 | [1] 0.027 | defactinib -0.029 | rucaparib 0.006 | [2] 0.046 | encorafenib 0.038 | [3] -0.005 | [4] 0.054 | filanesib 0.01 | zotarolimus -0.007 | idasanutlin -0.061 | alisertib -0.026 | [5] 0.083 | gefitinib -0.014 | [6] -0.04 | lapatinib 0.021 | pictilisib 0.033

Continued.

TOR1AIP1 (UniProt Q5JTV8)
inactive: saracatinib 0.138 | sotrastaurin 0.139 | alvocidib 0.009 | rucaparib 0.06 | [2] -0.088 | encorafenib -0.129 | [4] 0.028 | filanesib -0.051 | zotarolimus -0.012 | idasanutlin 0.018 | alisertib -0.141 | [5] 0.121 | gefitinib -0.052 | [6] 0.015 | lapatinib -0.103 | pictilisib 0.064

TRA2B (UniProt P62995)
inactive: saracatinib -0.112 | sotrastaurin 0.037 | alvocidib 0.356 | Tubastatin A 0.016 | [1] -0.246 | defactinib 0.227 | rucaparib 0.312 | [2] -0.03 | encorafenib 0.081 | [3] 0.067 | [4] -0.093 | filanesib 0.485 | zotarolimus -0.16 | idasanutlin 0.526 | alisertib -0.033 | [5] 0 | gefitinib -0.058 | [6] -0.106 | lapatinib 0.182 | pictilisib -0.052

TPD52L2 isoform 7 (UniProt O43399)
inactive: saracatinib 0.015 | sotrastaurin 0.073 | alvocidib 0.018 | Tubastatin A -0.008 | [1] -0.016 | defactinib -0.01 | rucaparib -0.034 | [2] -0.02 | encorafenib -0.021 | [3] 0.036 | [4] 0.012 | filanesib -0.016 | zotarolimus -0.032 | idasanutlin 0.004 | alisertib -0.02 | [5] -0.03 | gefitinib 0.003 | [6] 0.053 | lapatinib -0.014 | pictilisib 0.035

TRIM38 (UniProt O00635)
inactive: saracatinib 0.107 | sotrastaurin -0.144 | alvocidib 0.032 | [1] -0.181 | defactinib 0.014 | [2] -0.208 | [3] 0.073 | [4] -0.289 | filanesib 0.211 | zotarolimus -0.029 | idasanutlin 0.017 | alisertib -0.059 | [5] 0.009 | gefitinib 0.005 | [6] 0.049 | lapatinib -0.163 | pictilisib 0.433

TOLLIP (UniProt Q9H0E2)
inactive: saracatinib -0.061 | sotrastaurin -0.056 | alvocidib -0.168 | Tubastatin A 0.003 | [1] 0.027 | defactinib -0.063 | rucaparib -0.057 | [2] 0.001 | encorafenib -0.035 | [3] -0.068 | [4] 0.097 | filanesib -0.115 | zotarolimus 0.006 | idasanutlin 0.019 | alisertib 0.165 | [5] -0.029 | gefitinib -0.03 | [6] -0.051 | lapatinib 0.023 | pictilisib -0.023

TP53I3 (UniProt Q53FA7)
inactive: saracatinib -0.04 | sotrastaurin -0.004 | alvocidib -0.009 | Tubastatin A -0.023 | [1] -0.04 | defactinib -0.021 | rucaparib 0.01 | [2] -0.011 | encorafenib -0.055 | [3] 0.112 | [4] 0.013 | filanesib 0 | zotarolimus -0.005 | idasanutlin -0.008 | alisertib -0.058 | [5] 0.023 | gefitinib 0.008 | [6] 0.061 | lapatinib 0.003 | pictilisib -0.012
